{"source": "PubChem BioAssay AID330", "about": "(DTP/NCI, 2004)", "tested_on": "P388 leukemia ip, CD2F1 mice, survival T/C", "assay": "NCI In Vivo Anticancer Drug Screen. Data for tumor model P388 Leukemia (intraperitoneal) in CD2F1 (CDF1) mice", "settings": "T/C endpoint: median survival time, higher T/C = longer survival; for T/C: schedule: Q04DX003 (ip), vehicle: distilled water + Tween-80", "note": "The list shows only some results of the screen, not a fair sample: it is rich in T/C values a quarter to a half above the control, in often repeated tests (any T/C) and in doses without a T/C. Further doses and runs are listed elsewhere. T/C: endpoint of the treated group in % of that of the vehicle group. Some entries give survivors of the animals treated and no T/C: the source holds a T/C of zero for them, seemingly a mark for toxic or unscored doses. Some survivor counts are full or nearly so, which does not show that the dose was tolerated: survival well below the control is almost never listed, so the zero probably covers shortened survival too. Counts of survivors are from the toxicity check (mostly the fifth day) where no day follows; animals may have died later. Schedules are NCI's codes, taken here to give the interval after Q, in days (D) or hours (H), and the number of doses after X. For survival time, this PubChem deposit counts one and a half times the control or more as active, and values a quarter to a half above the control carry no call in these data; other NCI protocols may use other cut-offs. Some molecules as drawn cover several salts, stereoisomers or complexes of the source; a dose is that of the sample tested."}
{"smiles": "COc1cccc2c1C(=O)c1c(O)c3c(c(O)c1C2=O)C[C@@](O)(C(C)=O)C[C@@H]3OC1CC(N)C(C(C)O)O1", "note": "(some centres undefined)", "values": [{"measurement": "T/C", "setting": "dose: 50.0 mg/kg/injection", "value": "128 % of control"}, {"measurement": "T/C", "setting": "dose: 200.0 mg/kg/injection", "value": "125 % of control"}]}
{"smiles": "CN(c1ccccc1)C(C#N)CC(C)(C)C", "note": "(centres undefined)", "values": [{"measurement": "survivor count", "setting": "dose: 200.0 mg/kg/injection, schedule: Q01DX005 (ip), vehicle: Klucel (hydroxypropylcellulose) (HPC)", "value": "3 of 6"}]}
{"smiles": "Cc1nc(C(=O)NO)c2ccccc2n1", "values": [{"measurement": "survivor count", "setting": "dose: 100.0 mg/kg/injection, schedule: Q01DX009 (ip), vehicle: saline with Tween-80", "value": "6 of 6"}]}
